Assay results taken from the supplement of paper PMC6658780.
Structures can show the parent of a compound that is named as a salt. ± gives the standard deviation of the averaged measurements. The list shows a part of the results. Single values are uncertain here, since repeats match poorly.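 The A. baumannii clinical isolates were selected for resistance to the partner antibiotic; the screen seeks drugs that restore its effect. Background from coloured compounds is removed by subtracting the start-of-incubation reading.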

Test system: Acinetobacter baumannii WP-487
Test: percent growth inhibition of drug alone vs DMSO control; higher = more growth inhibition
Conditions: antibiotic (0.125x MIC): none (0.1% DMSO); 7 µM
Description: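 Prestwick drugs tested at 20 uM and 7 uM with an antibiotic at 0.125x MIC (16 mg/L when MIC >128 mg/L) in cation-adjusted Mueller-Hinton broth, 384-well plates, duplicate runs on different days. Percent growth inhibition was computed from OD600 (24 h minus 0 h) relative to DMSO-only wells. Drug + 0.1% DMSO (no antibiotic) wells are also given. Only hits (max corrected inhibition > mean + 3SD) are listed. A. baumannii: NCTC-13301 was used for MEM/CIP/GEN/TGC and WP-487 for colistin. Duplicates with colistin are strongly discordant (run 2 near 100% for most drugs).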

| SMILES | percent growth inhibition of drug alone |
| --- | --- |
| COc1ccc(CCN2CCC(Nc3nc4ccccc4n3Cc3ccc(F)cc3)CC2)cc1 [Astemizole] | 4.46 ± 5.8% |
| CC(Cc1ccccc1)NCCC(c1ccccc1)c1ccccc1 (stereo not given) [Prenylamine lactate] | 0.836 ± 11% |
| CN1[C@@H]2CC[C@H]1C[C@@H](OC1c3ccccc3CCc3ccccc31)C2 [Deptropine citrate] | 2.96 ± 3% |
| O=c1[nH]c2ccccc2n1C1CCN(CCCC(c2ccc(F)cc2)c2ccc(F)cc2)CC1 [Pimozide] | -3.69 ± 10% |
| C[C@]12CC[C@@H]3c4ccc(OC(=O)N(CCCl)CCCl)cc4CC[C@H]3[C@@H]1CC[C@@H]2O [Estramustine] | 6.56 ± 0.46% |
| OC(c1ccccc1)(c1ccccc1)C1CCNCC1 [Azacyclonol] | 7.14 ± 5.4% |
| CC(=O)O[C@H]1CC[C@@]2(C)C(=CC[C@@H]3[C@@H]2CC[C@]2(C)C(=O)CC[C@@H]32)C1 [Dehydroisoandosterone 3-acetate] | 0.473 ± 11% |
| CN(C)C(=O)Oc1ccc[n+](C)c1 [Pyridostigmine iodide] | 2.83 ± 7.9% |
| Cc1cc(C(C#N)c2ccc(Cl)cc2)c(Cl)cc1NC(=O)c1cc(I)cc(I)c1O (stereo not given) [Closantel] | 11.4 ± 0.91% |
| CCC(=O)O[C@H]1CC[C@H]2[C@@H]3CCC4=CC(=O)CC[C@]4(C)[C@H]3CC[C@]12C [Testosterone propionate] | -3.84 ± 8.8% |
| CC(C)c1c(CN(C)C(C)Cc2ccccc2)n(C)n(-c2ccccc2)c1=O (stereo not given) [Famprofazone] | 4.57 ± 4.5% |
| c1ccc2c(c1)Nc1ccccc1S2 [Phenothiazine] | 3.41 ± 1.8% |
| Fc1ccc(C(OCCN2CCN(CCCc3ccccc3)CC2)c2ccc(F)cc2)cc1 | -6.16 ± 14% |
| CN[C@@H]1C[C@@H](c2ccc(Cl)c(Cl)c2)c2ccccc21 [Indatraline hydrochloride] | 1.53 ± 6.4% |
| O=c1c2ccccc2[se]n1-c1ccccc1 [Ebselen] | 5.62 ± 0.97% |

Same assay, conditions: antibiotic (0.125x MIC): none (0.1% DMSO); 20 µM

| SMILES | percent growth inhibition of drug alone |
| --- | --- |
| COc1ccc(CCN2CCC(Nc3nc4ccccc4n3Cc3ccc(F)cc3)CC2)cc1 [Astemizole] | -0.743 ± 0.037% |
| CC(Cc1ccccc1)NCCC(c1ccccc1)c1ccccc1 (stereo not given) [Prenylamine lactate] | -0.0895 ± 2.3% |
| CN1[C@@H]2CC[C@H]1C[C@@H](OC1c3ccccc3CCc3ccccc31)C2 [Deptropine citrate] | 1.62 ± 0.78% |
| O=c1[nH]c2ccccc2n1C1CCN(CCCC(c2ccc(F)cc2)c2ccc(F)cc2)CC1 [Pimozide] | 5.44 ± 7.9% |
| C[C@]12CC[C@@H]3c4ccc(OC(=O)N(CCCl)CCCl)cc4CC[C@H]3[C@@H]1CC[C@@H]2O [Estramustine] | 4.77 ± 8.4% |
| OC(c1ccccc1)(c1ccccc1)C1CCNCC1 [Azacyclonol] | -3.09 ± 4.3% |
| CC(=O)O[C@H]1CC[C@@]2(C)C(=CC[C@@H]3[C@@H]2CC[C@]2(C)C(=O)CC[C@@H]32)C1 [Dehydroisoandosterone 3-acetate] | 0.113 ± 4% |
| CN(C)C(=O)Oc1ccc[n+](C)c1 [Pyridostigmine iodide] | 0.311 ± 0.19% |
| Cc1cc(C(C#N)c2ccc(Cl)cc2)c(Cl)cc1NC(=O)c1cc(I)cc(I)c1O (stereo not given) [Closantel] | 23.5 ± 0.93% |
| CCC(=O)O[C@H]1CC[C@H]2[C@@H]3CCC4=CC(=O)CC[C@]4(C)[C@H]3CC[C@]12C [Testosterone propionate] | -1.84 ± 2.2% |
| CC(C)c1c(CN(C)C(C)Cc2ccccc2)n(C)n(-c2ccccc2)c1=O (stereo not given) [Famprofazone] | -0.971 ± 5.2% |
| c1ccc2c(c1)Nc1ccccc1S2 [Phenothiazine] | 1.98 ± 1.9% |
| Fc1ccc(C(OCCN2CCN(CCCc3ccccc3)CC2)c2ccc(F)cc2)cc1 | -4.16 ± 4.7% |
| CN[C@@H]1C[C@@H](c2ccc(Cl)c(Cl)c2)c2ccccc21 [Indatraline hydrochloride] | 4.31 ± 4.2% |
| O=c1c2ccccc2[se]n1-c1ccccc1 [Ebselen] | 27.8 ± 29% |
